Test results from article PMC12040169 (PLOS Biology, 2025).
The other results are listed elsewhere or left out.

The compounds below were run on T1, CTL2-GFP (C. trachomatis L2/434/Bu, GFP-expressing). Conditions: bulk GFP, single well; 28.5 h, 10 µM; inhibitor.
T1 construct: L2/434/Bu, GFP-expressing
Set-up: species or system HeLa; Intracellular C. trachomatis growth in HeLa cells, bulk GFP fluorescence relative to DMSO

Compared with O=C(c1ccco1)N1CCCC(n2cnc3cc(F)ccc32)C1 (centres unmarked) [CBK284475], Cn1cnc2cc(C(=O)N3CC(C(=O)N4CCN(c5ccccc5)CC4)C3)ccc21 [CBK285664] is higher in “% of control remaining” value: 128.07% for the first, 132.345% for the second.

First: CCn1ccc(NC(=O)CC2CCN(Cc3cccc(C(F)(F)F)c3)CC2)n1 [CBK285997]
Second: O=C(CC1CCN(Cc2cccc(C(F)(F)F)c2)CC1)NCc1ccc2[nH]c(=O)[nH]c2c1 [CBK285954]
The “% of control remaining” value of the first is lower: 97.7651% for the first, 107.53% for the second.

Going from O=C(Nc1ccc(S(=O)(=O)N2CCCCCC2)cc1)c1ccc(NS(=O)(=O)c2ccccc2)cc1 [CBK268018] to CSc1ncc(Cl)c(C(=O)Nc2ccc(S(=O)(=O)N3CCC(Cc4ccccc4)CC3)cc2)n1 [CBK268870], the “% of control remaining” value falls from 117.685% to 115.609%.

Compared with CCOC(=O)c1c(NC(C)=O)nc2n1CCS2 [CBK023488], CCOC(=O)c1ccc(Nc2nnc3nc(C)cc(C)n23)cc1 [CBK267600] is lower in “% of control remaining” value: 159.098% for the first, 126.265% for the second.

Compared with Cc1cccc(CN2CC[C@H]3[C@@H](C2)[C@H](c2ccsc2)CN3C(=O)c2ccccc2)c1 [CBK285619], C[C@@H]1C[C@H](Nc2ccccc2)c2ccccc2N1C(=O)CCC(=O)O [CBK286820] is higher in “% of control remaining” value: 123.729% for the first, 131.923% for the second.

Going from CC(C)Oc1ncc(C(=O)NCc2cccc(NC(N)=O)c2)cc1Cl [CBK306327] to CCn1c(=O)[nH]c2cc(C(=O)NCCc3ccccc3)ccc2c1=O [CBK265773], the “% of control remaining” value rises from 129.393% to 148.354%.

Compared with O=C(O)C(Cc1ccccc1)N1C(=O)/C(=C/c2cccc([N+](=O)[O-])c2)SC1=S (centres unmarked) [CBK263078], O=C(Cn1c(=O)[nH]c2c(oc3ccccc32)c1=O)Nc1ccccc1 [CBK287818] is higher in “% of control remaining” value: 109.73% for the first, 150.522% for the second.

Compared with CCN(CC)CC1CCCCC1=O (centres unmarked) [CBK023965G], O=C(CCC1CCCO1)N1CCCC(COc2ccc(F)cc2)C1 (centres unmarked) [CBK282031] is higher in “% of control remaining” value: 125.415% for the first, 174.943% for the second.

First: Cc1nc(C)c(-c2csc(Nc3ccc(O)cc3C)n2)s1 [CBK267346]
Second: Cc1ncccc1C(=O)NC(c1ccc(F)c(F)c1)c1nccn1C (centres unmarked) [CBK283809]
The “% of control remaining” value of the first is higher: 161.064% for the first, 127.634% for the second.

Going from Cn1c(=O)n(CC(=O)NC2CC2)c2cccnc21 [CBK104297] to Cc1cc(NC(=O)c2ccc3c(c2)C(=O)N(CC2CCCO2)C3=O)no1 (centres unmarked) [CBK072998], the “% of control remaining” value falls from 164.888% to 108.064%.

Going from Cc1ccccc1-c1ccc(C(=O)NCCc2ccc(S(N)(=O)=O)cc2)c(NCc2cccnc2)n1 [CBK076116] to O=C(/C=C/c1ccccc1)NC(=S)Nc1cccc(-c2nc3ncccc3o2)c1 [CBK263742], the “% of control remaining” value rises from 100% to 123.55%.

Compared with CN(CC(O)CN1CCOCC1)C(=O)c1cc2sccc2[nH]1 (centres unmarked) [CBK306437], CCc1cc2c(=O)c(-c3nc4ccccc4n3C)c(C)oc2c(CN2CCOCC2)c1O [CBK262124] is higher in “% of control remaining” value: 111.853% for the first, 112.959% for the second.

Compared with O=C([C@H]1O[C@H](CCN2CCN(c3ccccn3)CC2)CC[C@@H]1O)N1CCCC1 [CBK288730], CC1CCN(C(=O)C2CC(=O)N(c3ccc(C(=O)O)cc3)C2)CC1 (centres unmarked) [CBK286568] is lower in “% of control remaining” value: 121.489% for the first, 100.057% for the second.

First: CCOc1ccc(OCCC#N)cc1 [CBK015880]
Second: CCOc1cc(C(O)c2nnc(-c3ccccc3)o2)ccc1OCC(C)C (centres unmarked) [CBK132385]
The “% of control remaining” value of the first is higher: 154.753% for the first, 114.431% for the second.

First: CC(C)(C)NCC(O)COc1c(F)cc(Br)cc1F (centres unmarked) [CBK020879C]
Second: Cc1cc(C)c(Oc2nc(=O)n([C@H]3C[C@@H](O)[C@@H](CO)O3)cc2F)c(C)c1 [CBK201184]
The “% of control remaining” value of the first is lower: 102.226% for the first, 154.385% for the second.

Compared with CC(=O)NC(CCC(N)=O)C(=O)N1CC2(CCCC2)c2c(F)cccc21 (centres unmarked) [CBK306412], Cc1nc[nH]c1CN1CCCN(S(=O)(=O)c2ccc(C(F)(F)F)cc2Cl)CC1 [CBK063035] is lower in “% of control remaining” value: 135.066% for the first, 71.5193% for the second.

First: COCc1cc(C)nc2sc(C(N)=O)c(N)c12 [CBK018149]
Second: CCN(CC)C(=O)CN(CCc1ccc(OC)c(OC)c1)C(=O)NCc1cc(C)on1 [CBK160581]
The “% of control remaining” value of the first is lower: 81.3675% for the first, 111.635% for the second.

Compared with O=C(O)c1cccc(NS(=O)(=O)c2cc(C(F)(F)F)cc(C(F)(F)F)c2)c1 [CBK155725], O=C1c2cccc([N+](=O)[O-])c2C(=O)N1c1cc(Cl)cc(Cl)c1 [CBK115326] is lower in “% of control remaining” value: 101.796% for the first, 96.7117% for the second.

First: CN1CCCN(c2nc(-c3cccs3)cn3ccnc23)CC1 [CBK066652]
Second: Clc1ccc(CNc2ncc(-c3ccc(N4CCOCC4)cc3)n3ccnc23)cc1Cl [CBK091229]
The “% of control remaining” value of the first is higher: 122.933% for the first, 120.438% for the second.
